## Library screen at single concentrations

Sequences of proteins named here, by UniProt entry; tags and fusion partners are left off. Residues count along the entry.
UniProt P9WFT3, whole entry: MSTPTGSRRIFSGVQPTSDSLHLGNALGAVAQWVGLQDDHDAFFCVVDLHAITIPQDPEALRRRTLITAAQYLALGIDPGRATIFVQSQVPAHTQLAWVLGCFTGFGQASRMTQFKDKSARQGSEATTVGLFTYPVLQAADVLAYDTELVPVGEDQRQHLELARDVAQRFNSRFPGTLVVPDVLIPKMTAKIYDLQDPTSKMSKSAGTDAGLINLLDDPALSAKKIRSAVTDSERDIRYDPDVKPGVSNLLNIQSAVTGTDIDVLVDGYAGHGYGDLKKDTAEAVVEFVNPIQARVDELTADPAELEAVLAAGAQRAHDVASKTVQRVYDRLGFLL
UniProt I6X8D2, whole entry: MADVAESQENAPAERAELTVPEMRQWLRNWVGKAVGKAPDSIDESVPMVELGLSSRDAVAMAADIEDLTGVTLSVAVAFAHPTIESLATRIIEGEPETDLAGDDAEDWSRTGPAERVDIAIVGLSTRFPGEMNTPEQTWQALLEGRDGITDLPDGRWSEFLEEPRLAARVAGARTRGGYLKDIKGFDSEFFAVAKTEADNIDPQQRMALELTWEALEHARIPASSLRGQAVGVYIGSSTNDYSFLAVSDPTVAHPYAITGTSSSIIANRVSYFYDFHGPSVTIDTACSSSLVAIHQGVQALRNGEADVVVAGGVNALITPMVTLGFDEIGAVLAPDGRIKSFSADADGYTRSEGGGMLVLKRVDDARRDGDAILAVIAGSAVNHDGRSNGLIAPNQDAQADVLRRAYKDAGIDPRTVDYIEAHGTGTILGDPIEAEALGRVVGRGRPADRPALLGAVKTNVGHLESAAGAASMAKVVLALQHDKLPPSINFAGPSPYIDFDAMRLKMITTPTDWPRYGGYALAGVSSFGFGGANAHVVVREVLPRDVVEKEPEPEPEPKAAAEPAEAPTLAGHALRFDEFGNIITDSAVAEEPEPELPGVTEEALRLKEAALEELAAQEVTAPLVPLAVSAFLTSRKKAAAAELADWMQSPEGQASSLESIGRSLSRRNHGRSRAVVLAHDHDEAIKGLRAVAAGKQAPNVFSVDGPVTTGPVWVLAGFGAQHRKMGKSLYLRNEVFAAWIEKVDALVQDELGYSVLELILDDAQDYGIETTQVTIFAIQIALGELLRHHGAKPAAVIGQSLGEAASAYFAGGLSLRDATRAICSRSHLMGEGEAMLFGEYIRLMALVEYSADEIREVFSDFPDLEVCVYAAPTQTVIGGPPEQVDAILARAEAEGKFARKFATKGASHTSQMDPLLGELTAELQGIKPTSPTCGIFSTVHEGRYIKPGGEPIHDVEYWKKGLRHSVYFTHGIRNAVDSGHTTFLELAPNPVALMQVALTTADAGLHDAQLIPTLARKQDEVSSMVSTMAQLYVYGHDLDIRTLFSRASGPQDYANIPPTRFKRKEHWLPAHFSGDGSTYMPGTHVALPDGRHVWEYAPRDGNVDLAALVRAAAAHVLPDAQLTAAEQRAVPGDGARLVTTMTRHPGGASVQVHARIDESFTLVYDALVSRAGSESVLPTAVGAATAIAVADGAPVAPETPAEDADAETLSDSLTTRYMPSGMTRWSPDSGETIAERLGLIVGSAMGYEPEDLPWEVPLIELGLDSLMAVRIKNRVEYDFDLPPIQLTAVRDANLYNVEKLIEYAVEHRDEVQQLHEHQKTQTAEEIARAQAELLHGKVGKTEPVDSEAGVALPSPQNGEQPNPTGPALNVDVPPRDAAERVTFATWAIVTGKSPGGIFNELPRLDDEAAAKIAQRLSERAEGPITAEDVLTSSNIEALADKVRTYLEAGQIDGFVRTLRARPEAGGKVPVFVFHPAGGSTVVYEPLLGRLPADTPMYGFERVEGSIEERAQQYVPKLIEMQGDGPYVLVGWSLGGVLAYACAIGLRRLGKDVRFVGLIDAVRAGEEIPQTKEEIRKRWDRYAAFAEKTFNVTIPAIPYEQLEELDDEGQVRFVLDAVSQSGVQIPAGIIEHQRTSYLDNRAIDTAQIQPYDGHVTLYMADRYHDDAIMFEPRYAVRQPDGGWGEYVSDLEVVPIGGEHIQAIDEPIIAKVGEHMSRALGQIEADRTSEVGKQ
UniProt A4I591, 1-473: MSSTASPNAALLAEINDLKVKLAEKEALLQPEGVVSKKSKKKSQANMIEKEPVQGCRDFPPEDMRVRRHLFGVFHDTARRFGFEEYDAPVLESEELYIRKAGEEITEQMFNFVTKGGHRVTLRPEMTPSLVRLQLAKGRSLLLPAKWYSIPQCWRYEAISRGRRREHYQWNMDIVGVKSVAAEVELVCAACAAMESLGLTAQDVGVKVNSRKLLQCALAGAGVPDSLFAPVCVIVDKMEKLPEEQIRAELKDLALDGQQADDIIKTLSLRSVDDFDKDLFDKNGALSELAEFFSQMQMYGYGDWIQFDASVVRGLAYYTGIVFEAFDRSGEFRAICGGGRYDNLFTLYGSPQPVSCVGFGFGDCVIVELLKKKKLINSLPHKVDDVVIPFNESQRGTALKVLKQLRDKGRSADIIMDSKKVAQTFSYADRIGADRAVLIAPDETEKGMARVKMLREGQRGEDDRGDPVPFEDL
UniProt Q4DA54, 1-478: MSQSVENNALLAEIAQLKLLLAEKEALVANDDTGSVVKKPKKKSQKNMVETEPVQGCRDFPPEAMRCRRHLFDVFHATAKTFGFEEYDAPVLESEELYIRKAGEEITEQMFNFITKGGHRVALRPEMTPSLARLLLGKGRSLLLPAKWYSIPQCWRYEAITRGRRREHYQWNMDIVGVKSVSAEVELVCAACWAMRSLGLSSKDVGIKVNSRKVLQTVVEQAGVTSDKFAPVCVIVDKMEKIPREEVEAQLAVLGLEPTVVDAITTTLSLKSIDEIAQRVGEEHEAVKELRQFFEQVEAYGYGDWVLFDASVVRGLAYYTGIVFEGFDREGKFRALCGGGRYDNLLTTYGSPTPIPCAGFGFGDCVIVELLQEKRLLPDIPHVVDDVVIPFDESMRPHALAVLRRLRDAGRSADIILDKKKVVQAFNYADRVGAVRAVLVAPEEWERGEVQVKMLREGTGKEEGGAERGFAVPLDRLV

The values are deposited in ChEMBL (CHEMBL3988442, “University of Dundee, Small-Polar-MMV Screening Library” (2021)).

Values are the deposited “Percent Effect”, in %.
The record does not define 0% and 100%; most values in the screen are far below 50% and negative numbers occur (in some assays of this library far below -100).
Compounds were drawn at random from those tested, without regard to their results.
A dash means the value is not listed here; it may have been measured.

MtTrpRS: 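Enzyme assay of tryptophanyl-tRNA synthetase; the read-out is not stated. Target: Tryptophan-tRNA ligase, Mycobacterium tuberculosis (UniProt P9WFT3). Compounds at 10 µM. Direction is not recorded; retested compounds ran higher, which suggests that high means inhibition. Size under these conditions: about 65,000 compounds, about 64 of them at 50% or above in at least one test.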
Pks13 thioesterase: 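Polyketide synthase Pks13, Mycobacterium tuberculosis (UniProt I6X8D2). Enzyme assay of the thioesterase domain of polyketide synthase 13; the read-out is not stated. Concentration: 30 µM. Higher reads as stronger inhibition (inferred from which compounds were picked for retests). About 67,000 compounds were tested under these conditions; 0.46% (about 300) showed 50% or more at least once.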
LiHisRS: 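Histidine-tRNA ligase, Leishmania infantum (UniProt A4I591). Enzyme assay of histidyl-tRNA synthetase; the read-out is not stated. Tested at 30 µM. Direction is inferred from retests: higher values go with stronger inhibition. The assay is labelled LdHisRS but filed under L. infantum. About 69,000 compounds were tested under these conditions; 0.6% (about 410) showed 50% or more at least once.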
TcHisRS: 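Enzyme assay of histidyl-tRNA synthetase; the read-out is not stated. Target: Histidine-tRNA ligase, Trypanosoma cruzi CL Brener (UniProt Q4DA54). Tested at 30 µM. Direction is inferred from retests: higher values go with stronger inhibition. Size under these conditions: about 69,000 compounds, about 31 of them at 50% or above in at least one test.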

Compound | MtTrpRS | Pks13 thioesterase | LiHisRS | TcHisRS
Cc1nn(C)c(C)c1C1COCCN1C(=O)Cc1cccc(F)c1 (stereo not shown) | -3.92 | -13.49 | 11.54 | 3.306
CCn1ncc2c1C(COC)N(C(=O)Cc1cccs1)CC2 (stereo not shown) | - | -5.905 | -2.727 | 4.233
NC1(C(=O)NCCC2CN(Cc3ccco3)CCO2)CCCC1 (stereo not shown) | 0.2937 | 13.49 | 26.53 | 12
Cc1ccnc(NC(=O)C2(n3cnnn3)CCCCC2)c1 | 1.84 | 3.564 | 21.05 | 0
CCC(=O)N1CCCc2c(cnn2C)C1 | -0.5529 | 2.045 | 14.49 | 9.091
CC(C)c1nnc2n1CCN(CC(=O)Nc1sccc1C#N)C2 | -0.4873 | -15.99 | 1.515 | 4.545
NC(=O)CN1CCC(NC(=O)N2CCCC2c2ccncc2)CC1 (stereo not shown) | 2.767 | -22.74 | 10.34 | -1.571
Cc1ccc(C)c(CC(=O)NC2CCCS(=O)(=O)C2)c1 (stereo not shown) | 1.56 | -5.393 | 0 | -1.19
FC(F)Oc1ccccc1CN1CCCC(c2nccn2CC2CC2)C1 (stereo not shown) | -0.5228 | - | 18.25 | 8.235
CC(Cn1cccn1)NC(=O)N1CCN(Cc2ccco2)CC1 (stereo not shown) | -7.91 | -15.44 | 11.4 | 4.36
Cc1nc(C)n(CC2CCCN2Cc2cn3cc(Cl)ccc3n2)n1 (stereo not shown) | -0.298 | -13.45 | 12.07 | 5.65
CCn1c(C(=O)N2CCN(C(=O)COC)CC2)cc2ccccc21 | 1.679 | -18.39 | 30.14 | -1.527
COc1ccc(C)cc1C(C(=O)O)N1CCN(Cc2ccccn2)CC1 (stereo not shown) | -1.458 | -19.16 | 11.11 | 3.061
O=C(NCC(F)F)c1ccc(S(=O)(=O)N2CCCC(O)C2)cc1 (stereo not shown) | 0.5863 | -16.87 | 16.81 | 2.4
Cc1cc(C)nc(C2CCN(C(=O)CCn3ncc4ccccc43)C2)n1 (stereo not shown) | -6.275 | 0.5804 | 6.207 | 7.605
COc1ccnc(N(C)Cc2ccccc2OC(F)(F)F)n1 | -10.06 | -24.02 | 6.838 | 0.5405
O=C1N(Cc2ccc(F)c(F)c2)CCCC1(O)CNCC1CCCCC1 (stereo not shown) | -4.842 | 0.006002 | 17.65 | 12.11
CC(=O)C1(c2ccccc2)CCN(C(=O)c2ccc3nnnn3c2)CC1 | 1.254 | -25.76 | 1.266 | 6.466
CCN(Cc1ccncc1)c1cc(C2CCN2C(C)=O)nc(C)n1 (stereo not shown) | 0.5208 | 3.506 | 21.58 | 14.18
O=C(c1n[nH]c(=O)c2ccccc12)N1CCCC1Cn1cccn1 (stereo not shown) | -0.5089 | -6.652 | 9.589 | 3
COC(=O)NCC(=O)NCC(C)(C)c1cccc(Br)c1 | 1.729 | -17.48 | 25.37 | 5.319
CCN(CC)CCNS(=O)(=O)c1cccc(CSC)c1 | 1.147 | -31.47 | 15.93 | -17.54
O=C1CCC(C(=O)N(Cc2ccsc2)CC2CCCO2)=NN1 (stereo not shown) | -0.9226 | -23.37 | 12.9 | 13.79
CCN1CCN(CC(O)c2cc(Cl)ccc2Cl)CC1 (stereo not shown) | 1.802 | -26.17 | 18.31 | 6.077
CCNC(=O)NC(=O)CN(CC(C)O)c1ccccc1 (stereo not shown) | 2.034 | -19.78 | 1.653 | -5.042
CC(C)=CCCN1CCN(C)C2(CCC(=O)N(C)CC2)C1 (stereo not shown) | 3.309 | -13.31 | 7.692 | -3.448
CN(Cc1ccccn1)C(=O)c1ccc2c(c1O)OC(C)(C)C2 | 4.263 | -8.149 | 8.621 | 1.571
O=C(c1ccco1)N1CCOC2(COCCN(c3ncccn3)C2)C1 (stereo not shown) | -6.748 | 0.1585 | 1 | 3.061
Cc1cc(N2CCN(Cc3cn(C)nc3C)CC2)cc(C2CCNC2)n1 (stereo not shown) | -1.797 | 14.29 | 13.04 | 5.303
Cc1cc(N2CCCC2c2cnccn2)ncn1 (stereo not shown) | 0.5853 | -32.17 | 16.67 | 3.784
COCC1(CNC(=O)[C@@]23CNC[C@@H]2CN(C2CCCC2)C3)CC1 | -2.328 | -38.64 | 12.82 | 5.056
CCN(CC)C(=O)c1ccc(NC(=O)CNc2ccc(Br)cc2F)cc1 | 3.284 | - | 25.71 | 0
Cc1nc(C)n(CC2CCCN2c2ccnc(-c3ccccc3)n2)n1 (stereo not shown) | -3.916 | - | 32.88 | 0
CC(CNC(=O)c1ccon1)Oc1cccc(Br)c1 (stereo not shown) | 0.2349 | 3.659 | 3.226 | 1.031
Cn1ccc(C(=O)NCc2ccccc2CN2CCCC2)cc1=O | 19.87 | -18.67 | 19.23 | 4.571
COc1ccc(N2CCN(Cc3nc(CSC)no3)CC2=O)cc1 | 2.142 | -0.08023 | 18.07 | 4.478
COc1ccc(Cn2cc(C(=O)N(C)Cc3ccn[nH]3)nn2)cc1 | 1.694 | -8.086 | 5.495 | 6.186
CCN1CC(C(=O)N2CCN(c3nsc4ccccc34)CC2)CCC1=O (stereo not shown) | 11.75 | 104.8 | 0 | 3.483
CC1CCCN(C(=O)C2CCN(c3snc4ccccc34)CC2)C1 (stereo not shown) | -2.939 | 5.392 | -37.39 | 7.324
CC(NC(=O)Nc1ccccc1CN1CCOCC1)c1nnc(N)s1 (stereo not shown) | -4.485 | -18.58 | 11.48 | 3.488
Cc1ccc(-c2cc(N)c(=O)n(CC(=O)NCC3CCCCC3)n2)s1 | -0.2508 | -38.64 | 8.333 | 1.622
CCc1nnc(Nc2cc(C)nc(C3CN(C(=O)C(C)C)CCO3)c2)s1 (stereo not shown) | 12.86 | 9.147 | 5.594 | 5.085
CC(C)N1CCC(N2CCCC(C(=O)NCC3(O)CCCCC3)C2)CC1 (stereo not shown) | -1.107 | - | 4.301 | 2.618
O=C(Cc1ccccn1)N1CCC(O)(Cn2ccc3ccncc32)CC1 | - | 1.915 | 6 | 5.993
CCc1ncncc1C(=O)N1CCN(Cc2c(C)noc2C)CC1 | -1.462 | -6.474 | 19.7 | -3.03